# Experimental data from PubChem BioAssay AID1487 (National Center for Advancing Translational Sciences (NCATS), 2009).
# This is one part of the list. These are further read-outs of the screen, such as a control signal, another cell line or another target. No call is given for them. The list favours compounds with an active or inconclusive main result. Words in brackets tell the shape of the fitted curve; partial curves, single points and poor fits give uncertain potencies.
# Experiment: qHTS Assay for Modulators of Lamin A Splicing
# Conditions: HeLa LMNA splicing GFP/RFP minigene ratio, 48 h
# Procedure, shortened: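 S3 HeLa cells stably expressing lamin A-EGFP splicing minigene plus DsRed2, 600 cells/well, 48 h compound exposure at 37C. Laser-scanning cytometry; analysed as GFP (500-530 nm)/RFP (575-640 nm) total intensity ratio; 0.5% DMSO vehicle.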
# [1] = measured here: RFP viability control channel
# [2] = measured here: GFP splicing reporter channel
compound,measurement,setting,value
COc1ccc(CNC(=O)/C=C/c2ccc3[nH]cc(CCN(C)C)c3c2)cc1,AC50,[1],"6.31 µM [rising, single point]"
Cc1ccc(Cl)cc1Nc1nn2c(=O)c3ccc(C(=O)NCc4cccs4)cc3nc2s1,AC50,[2],"10 µM [falling, partial curve]"
same,AC50,[1],"7.08 µM [falling, partial curve]"
CCCCn1c(O)c(C(CC)=Nc2ccc(OCC)cc2)c(=O)[nH]c1=O,AC50,[1],"35.5 µM [rising, single point]"
CCCCC(=O)N/N=C/c1c(O)n(CC)c(=S)n(CC)c1=O,AC50,[2],"31.6 µM [rising, single point]"
same,AC50,[1],"31.6 µM [rising, single point]"
COc1cccc(C2(C#N)CCN(C)CC2)c1,AC50,[2],"0.1 µM [rising, full curve, poor fit]"
Cc1cccc(-n2c(O)c(/C=C/C=Nc3ccccc3)c(=O)[nH]c2=O)c1,AC50,[2],"10 µM [falling, partial curve, poor fit]"
same,AC50,[1],"10 µM [falling, partial curve]"
C/C=C/C(=O)OCC(=O)Nc1ccc(OC)c(Cl)c1,AC50,[1],"0.0158 µM [rising, full curve, poor fit]"
C=CC[n+]1c(-c2ccc(C)cc2)csc1Nc1c(C)n(C)n(-c2ccccc2)c1=O,AC50,[1],"20 µM [rising, single point]"
CC/C(=C(\c1ccc(O)cc1)c1ccc(OCCN(C)C)cc1)c1ccccc1,AC50,[2],"17.8 µM [falling, partial curve, poor fit]"
same,AC50,[1],"31.6 µM [falling, partial curve, poor fit]"
CC(=O)NC(Cc1ccc(N(CCCl)CCCl)cc1)C(=O)O (stereo not given),AC50,[1],"17.8 µM [rising, single point]"
Cc1ccccc1C(=O)Nc1ccc(C(=O)OCc2cc(=O)n3nc(C4CC4)sc3n2)cc1,AC50,[2],"2.82 µM [falling, full curve]"
COc1ccn(C)c(=O)c1C#N,AC50,[2],"0.316 µM [falling, partial curve]"
same,AC50,[1],"1.78 µM [falling, partial curve, poor fit]"
CCOC(=O)C1CCN(/C=C2/C(=O)NC(=S)N(c3cccc(OC)c3)C2=O)CC1,AC50,[2],"39.8 µM [rising, partial curve, poor fit]"
COc1ccc(-n2c(/C=C\c3ccccc3F)nc3ccccc3c2=O)c(OC)c1,AC50,[1],"17.8 µM [rising, partial curve, poor fit]"
Cc1cccc(-n2c(O)c(C=Nc3ccccc3N)c(=O)[nH]c2=O)c1,AC50,[1],"14.1 µM [rising, partial curve]"

# Retrieved one by one from the list above (2):
compound,measurement,setting,value
Cc1cccc(-n2c(O)c(/C=C/C=Nc3ccccc3)c(=O)[nH]c2=O)c1,AC50,[2],"10 µM [falling, partial curve, poor fit]"
Cc1ccc(Cl)cc1Nc1nn2c(=O)c3ccc(C(=O)NCc4cccs4)cc3nc2s1,AC50,[2],"10 µM [falling, partial curve]"
